Laboratory results taken from patent US20220160812A1, “A PHARMACEUTICALLY ACTIVE SUBSTANCE” (Cytopharma GmbH, priority 2019, published 2022).
Entries after “also recorded” stand apart in the source; their conditions may differ. At least one peptide structure holds a part that was inferred or is arguable (an end, a ring closure or a residue). Non-standard residues stand in square brackets, D forms with d. Residues, ends and D or L forms follow the SMILES beside them.

Columns and labels:
[1] = system: human B-chronic lymphocytic leukaemia cells (MEC-1); experiment: cell vitality FACS analysis (region R-1), MEC-1 cells; type: cell-based; settings: for induced apoptosis (decrease of cell vitality), in words: MEC-1, Protocol A, 50, 100, 200 μM, about 24 hours per Examples (FIG. 11 legend: about 2 hours)
[2] = system: A375 melanoma cells; experiment: subG1 cell cycle FACS apoptosis assay, A375 melanoma cells; type: cell-based, human; settings: for apoptosis efficiency (subG1), comparison in words / apoptosis level (subG1), comparison in words: A375, Protocol A; for apoptosis efficiency (subG1), comparison in words: about 24 hours per Examples 21-30 (FIG. 5 legend: about 3 hours); for apoptosis level (subG1), comparison in words: concentration not specified (100 and 200 μM tested), FIG. 5
Description: To transfer adherent cells (A375 and BxPC-3 cells) after culture, cells are washed twice with PBS. To detach the cells, the enzyme biotase is used according to the manufacturer's instructions. For this purpose, after washing with PBS, the cells are mixed with biotase (5 ml of biotase solution per 75 cm^2 surface of the cell culture bottles) and incubated for 5 min at 37 degrees Celsius, and the biotase is separated by centrifugation. Cells cultivated in suspension (MEC-1 and lymphocytes) were transferred by dilution. The cells are suspended in culture medium and counted, each time 1.5×10^5 cells/cm^2 are seeded in 48-well plates and cultured for between 1.5 and 24 hours at 37 degrees Celsius, 5% CO2. Peptides are pre-diluted from stock solution with culture medium and 200 μl of peptide solution added so that final concentrations of 30 to 500 μM peptide are present in at most 1% (v/v) DMSO. As control solutions, culture medium without peptide (DMSO-containing) in culture medium or etoposide solution is added. After incubating the cells for several hours, the cell supernatant is transferred to a FACS tube for each batch and, after washing the cells with PBS, the wash solution is added. Then the cells are incubated with 200 μl of biotase solution for 10 min, 37° C., the cells with the biotase are also transferred to the FACS tube and the cells are collected by centrifugation for 5 min. The cell pellet is suspended in 500 μl of serum-free culture medium, then 1.5 ml of cold 80% ethanol (ethanol/PBS-80/20, v/v, stored at −20° C.) is added, the FACS tubes sealed and stored at −20 degrees Celsius for 15 to 18 h. Thereafter, the cells are centrifuged for 5 minutes at 120 g, suspended after removal of the supernatant in 2 ml PBS and incubated at 37 degrees Celsius for 30 minutes. After re-centrifugation, the cells are suspended in 0.5 ml DAPI solution and incubated for 15 min at 20 degrees Celsius in the dark. Thereafter, the cells are stored dark for a maximum of four hours in an ice bath, followed by the FACS analysis.
The adherent cells (A375 and BxPC-3 cells and MDA-MB-231, respectively) are seeded 24 hours before induction in 6-well plates in culture medium. For this, the cells are washed with PBS, then incubated with trypsin/EDTA solution at 37 degrees Celsius and suspended in culture medium. The 6-well plates are loaded with 1×10^5 cells/cm^2 in culture medium and the cells incubated for 24 hours until induction with the peptides in the incubator. For induction, the peptides are diluted in fresh culture medium. As control solutions, culture medium without peptide (DMSO-containing) in culture medium or etoposide solution is added. The cells are washed with PBS. Thereafter the peptide solution in culture medium is added to the cells. After incubation in the incubator (37° C., 5% CO2) between 1.5 and 24 hours, the cell supernatant is transferred to 15 ml centrifuge tubes, the cells are washed with 0.75 ml PBS and then with 0.5 ml versene solution. Both washings are combined with the cell supernatant. The cells are then added with 0.5 ml of trypsin/EDTA solution and incubated at about 37° C. for at most 10 minutes until the cells detached. The cell suspension is combined with cell supernatant and washings and centrifuged at about 130 g for about 10 minutes. After removing the supernatant, the cells are suspended in 400 μl of cell culture medium (without serum) and mixed with 1.2 ml of 80% ethanol/20% PBS (v/v) and incubated for 1 to 7 days at −20° C. For analysis, the cells are centrifuged at 130 g for 10 min, suspended in 2 ml PBS, and centrifuged again for 5 min. The cells are suspended in 700 μl PI buffer and incubated for 10 min at 37° C. in the dark. Subsequently, the cells are stored dark for a maximum of four hours in an ice bath, then the FACS analysis is performed.
The proportion of cells which have died was determined by two methods, both rely on the analysis of cells by flow cytometry, often called FACS analysis. […]

[3] = system: BxPC-3 human pancreatic cancer cells; experiment: cell vitality FACS analysis (region R-1, FSC/SSC), BxPC-3 cells; type: cell-based; settings: BxPC-3, Protocol A, all concentrations (50, 100, 200 μM), about 24 hours, FIG. 8
Description: (§1) To transfer adherent cells (A375 and BxPC-3 cells) after culture, cells are washed twice with PBS. To detach the cells, the enzyme biotase is used according to the manufacturer's instructions. For this purpose, after washing with PBS, the cells are mixed with biotase (5 ml of biotase solution per 75 cm^2 surface of the cell culture bottles) and incubated for 5 min at 37 degrees Celsius, and the biotase is separated by centrifugation. Cells cultivated in suspension (MEC-1 and lymphocytes) were transferred by dilution. The cells are suspended in culture medium and counted, each time 1.5×10^5 cells/cm^2 are seeded in 48-well plates and cultured for between 1.5 and 24 hours at 37 degrees Celsius, 5% CO2. […]
(§2) For suspension cells (MEC-1 and lymphocytes/PBMC) and for adherent cells analyzed according to Protocol A, FACS analysis to determine subG1 cell cycle and vital cell fractions was done on a Becton Dickinson LSR Fortessa flow cytometer. […]
(§3) Changes of the cell form during cell death by apoptosis are documented in the literature (Lizard et al. 1995; Taga et al. 2000; Vermes et al., 2000). […] Cell suspensions of cell lines A375, BxPC-3, MEC-1 or of primary lymphocytes (see separate example of lymphocyte preparation) are analyzed by flow cytometry. The data are further analyzed by using the program “Flowing Software 2”. […]

[4] = system: A375 melanoma cells; experiment: cell vitality FACS analysis (region R-1, FSC/SSC), A375 melanoma cells; type: cell-based, human; settings: A375, Protocol A, about 24 hours, FIG. 7
Description: as §1, §2, §3

CSCC[C@@H](NC(=O)[C@@H](Cc1c[nH]c2ccccc12)NC(=O)[C@@H](CCCCN)NC(=O)[C@H](N)CCCCN)C(=O)N[C@@H](C(=O)N[C@@H](C(=O)N[C@H](Cc1ccc(O)cc1)C(=O)N[C@H](Cc1ccccc1)C(=O)N[C@H](CCCNC(=N)N)C(=O)N[C@H](CCCCN)C(=O)O)C(C)C)C(C)C [SEQID No 27, k-k-w-m-v-v-y-f-r-k] (H-[dK][dK][dW][dM][dV][dV][dY][dF][dR][dK]-OH; N-terminus and C-terminus assumed)
induced apoptosis (decrease of cell vitality), in words [1]: lower than the effect of Peptides SEQID No 30, SEQID NO 31, SEQID NO 32 and SEQID NO 33 at any concentration
apoptosis efficiency (subG1) in view of Peptide SEQ C1 ([2]; A375, Protocol B, 100 μM, about 24 hours, FIG. 2): at least sevenfold
decrease of cell vitality, comparison in words [3]: significantly greater decrease than the control peptide (C1); also recorded: lower efficiency at all concentrations than the Peptides SEQID NO 37, SEQID NO 36 and SEQID NO 29
decrease of cell vitality, comparison in words ([4]; 500 μM): higher efficiency at 500 μM in view of peptide SEQID NO 39
decrease of cell vitality, comparison in words ([4]; any concentration (100, 200, 500 μM)): significantly greater decrease than the peptide of the prior art (Peptide SEQ C1)

CSCC[C@@H](NC(=O)[C@@H](Cc1c[nH]c2ccccc12)NC(=O)[C@@H](CCCCN)NC(=O)[C@H](N)CCCCN)C(=O)N[C@@H](C(=O)N[C@@H](C(=O)N[C@H](Cc1ccc(O)cc1)C(=O)N[C@H](Cc1ccccc1)C(=O)N[C@H](CCCNC(=N)N)C(=O)N[C@H](CCCCN)C(=O)N[C@H](CO)C(=O)N[C@H](CO)C(=O)N[C@H](CCCNC(=N)N)C(=O)O)C(C)C)C(C)C [SEQID No 30, k-k-w-m-v-v-y-f-r-k-s-s-r] (H-[dK][dK][dW][dM][dV][dV][dY][dF][dR][dK][dS][dS][dR]-OH; N-terminus and C-terminus assumed)
induced apoptosis (decrease of cell vitality), in words [1]: very high level of induced apoptosis
selectivity (MEC-1 cancer cells versus healthy Lymphocyte (PBMC) cells) ([1]; cell vitality method, 50-200 μM, especially 100 μM and above, FIG. 11): astonishingly high selectivity
apoptosis efficiency (subG1), comparison in words ([2]; 100 μM): higher efficiency at 100 μM in view of peptides SEQID NO 27 and SEQID NO 31
apoptosis efficiency (subG1), comparison in words ([2]; 200 μM): improvement over the peptides SEQID NO 27, SEQID NO 31 and SEQID NO 32

CSCC[C@@H](NC(=O)[C@@H](Cc1c[nH]c2ccccc12)NC(=O)[C@@H](CCCCN)NC(=O)[C@@H](CCCCN)NC(=O)[C@@H](CO)NC(=O)[C@@H](CCCNC(=N)N)NC(=O)[C@H](N)CCC(=O)O)C(=O)N[C@@H](C(=O)N[C@@H](C(=O)N[C@H](Cc1ccc(O)cc1)C(=O)N[C@H](Cc1ccccc1)C(=O)N[C@H](CCCNC(=N)N)C(=O)N[C@H](CCCCN)C(=O)O)C(C)C)C(C)C [SEQID No 31, e-r-s-k-k-w-m-v-v-y-f-r-k] (H-[dE][dR][dS][dK][dK][dW][dM][dV][dV][dY][dF][dR][dK]-OH; N-terminus and C-terminus assumed)
apoptosis level (subG1), comparison in words [2]: improved apoptosis level in view of peptide SEQID NO 27

CSCC[C@@H](NC(=O)[C@@H](Cc1c[nH]c2ccccc12)NC(=O)[C@@H](CCCCN)NC(=O)[C@H](N)CCCCN)C(=O)N[C@@H](C(=O)N[C@@H](C(=O)N[C@H](Cc1ccc(O)cc1)C(=O)N[C@H](Cc1ccccc1)C(=O)N[C@H](CCCNC(=N)N)C(=O)N[C@H](CCCCN)C(=O)N[C@H](CCC(=O)O)C(=O)N[C@H](C)C(=O)N[C@H](CCCNC(=N)N)C(=O)O)C(C)C)C(C)C [SEQID No 32, k-k-w-m-v-v-y-f-r-k-e-a-r] (H-[dK][dK][dW][dM][dV][dV][dY][dF][dR][dK][dE][dA][dR]-OH; N-terminus and C-terminus assumed)
induced apoptosis (decrease of cell vitality), comparison in words ([1]; MEC-1, Protocol A, 200 μM, FIG. 11): same efficiency as Peptide SEQID No 30
selectivity (MEC-1 cancer cells versus healthy Lymphocyte (PBMC) cells), compared with SEQID No 30 ([1]; cell vitality method, 200 μM, FIG. 11): higher selectivity (lower effect with regard to healthy cells)
apoptosis efficiency (subG1), comparison in words ([2]; 200 μM): higher efficiency than peptides SEQID NO 27 and SEQID NO 31
apoptosis level (subG1), comparison in words [2]: improved apoptosis level in view of peptide SEQID NO 27
